According to US20140155332A1:
Read-outs that look alike come from different tables or passages of the source. These are yes or no findings as the source states them, for the method shown. For some assays here: In cells and extracts the contact can be indirect. Some entries that bind do so weakly or less than the wild type.

What was measured:
[1] = molecular target: Mcl-1 (human), Q07820; test: immunoprecipitation with antibodies against Mcl-1, Bcl-XL or rabbit IgG from BPLER or HMLER lysates, immunoblot (FIG. 5F); details: remark: other sources report otherwise
[2] = molecular target: Mcl-1 (human), Q07820; details: remark: other sources report otherwise

- binding [1]: binds
- binding [2]: binds
B1: Noxa, Q13794 1-54 (protein, human, UniProt Q13794 1-54, looked up)
chain: MPGKKARKNAQPSPARAPAELEVECATQLRRFGDKLNFRQKLLNLISKLFCSGT
